Data as given in publication PMC4359308.
These are yes or no findings as the source states them, for the method shown. Binding seen in cells or lysates may run through a third protein. Some results given as binding are weak or reduced against the parent protein; the word gives no strength.

Protein sequences, listed by entry. Tags and fused reporters are not part of them.
UniProt Q6R327: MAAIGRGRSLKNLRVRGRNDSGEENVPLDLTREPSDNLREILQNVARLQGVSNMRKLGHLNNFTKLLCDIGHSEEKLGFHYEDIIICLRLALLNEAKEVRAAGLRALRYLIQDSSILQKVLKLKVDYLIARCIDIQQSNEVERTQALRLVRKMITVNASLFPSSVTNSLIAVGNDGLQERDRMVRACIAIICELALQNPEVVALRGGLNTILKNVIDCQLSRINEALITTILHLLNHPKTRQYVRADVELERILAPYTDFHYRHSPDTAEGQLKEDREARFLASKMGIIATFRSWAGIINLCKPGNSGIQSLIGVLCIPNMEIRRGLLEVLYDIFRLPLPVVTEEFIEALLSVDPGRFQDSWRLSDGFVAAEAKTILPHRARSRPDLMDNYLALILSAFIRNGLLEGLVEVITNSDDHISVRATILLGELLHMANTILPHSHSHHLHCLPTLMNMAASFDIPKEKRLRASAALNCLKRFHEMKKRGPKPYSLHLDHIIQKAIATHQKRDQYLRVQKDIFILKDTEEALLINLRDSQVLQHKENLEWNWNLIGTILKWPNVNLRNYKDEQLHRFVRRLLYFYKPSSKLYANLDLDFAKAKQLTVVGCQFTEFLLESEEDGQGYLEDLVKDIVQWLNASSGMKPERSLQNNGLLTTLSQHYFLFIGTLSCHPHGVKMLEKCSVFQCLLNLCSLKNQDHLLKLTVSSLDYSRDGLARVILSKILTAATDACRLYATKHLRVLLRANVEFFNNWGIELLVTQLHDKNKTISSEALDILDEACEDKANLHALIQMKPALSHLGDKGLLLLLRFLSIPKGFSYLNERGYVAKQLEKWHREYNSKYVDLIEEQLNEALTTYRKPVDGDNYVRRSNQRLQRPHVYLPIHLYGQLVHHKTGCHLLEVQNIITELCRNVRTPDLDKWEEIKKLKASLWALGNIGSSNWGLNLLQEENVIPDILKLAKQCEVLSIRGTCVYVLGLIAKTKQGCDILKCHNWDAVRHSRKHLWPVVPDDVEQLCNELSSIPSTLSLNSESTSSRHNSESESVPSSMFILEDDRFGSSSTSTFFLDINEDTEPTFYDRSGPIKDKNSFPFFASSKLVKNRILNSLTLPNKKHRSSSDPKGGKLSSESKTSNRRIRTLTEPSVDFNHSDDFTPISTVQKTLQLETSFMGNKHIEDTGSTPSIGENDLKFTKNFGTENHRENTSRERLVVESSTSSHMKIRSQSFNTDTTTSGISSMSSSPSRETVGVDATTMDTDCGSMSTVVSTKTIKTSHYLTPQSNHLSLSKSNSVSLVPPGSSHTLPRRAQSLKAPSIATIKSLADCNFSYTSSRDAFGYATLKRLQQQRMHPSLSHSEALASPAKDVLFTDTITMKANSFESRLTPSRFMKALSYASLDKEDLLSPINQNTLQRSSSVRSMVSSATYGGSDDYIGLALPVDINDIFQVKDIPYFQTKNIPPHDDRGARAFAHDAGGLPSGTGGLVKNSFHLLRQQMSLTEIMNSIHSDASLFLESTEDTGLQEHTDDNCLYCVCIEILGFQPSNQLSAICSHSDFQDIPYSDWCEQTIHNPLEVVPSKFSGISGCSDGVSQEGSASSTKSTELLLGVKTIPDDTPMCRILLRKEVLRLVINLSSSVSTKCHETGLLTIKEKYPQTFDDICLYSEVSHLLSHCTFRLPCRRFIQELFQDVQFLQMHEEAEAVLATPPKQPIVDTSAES
UniProt Q8N122: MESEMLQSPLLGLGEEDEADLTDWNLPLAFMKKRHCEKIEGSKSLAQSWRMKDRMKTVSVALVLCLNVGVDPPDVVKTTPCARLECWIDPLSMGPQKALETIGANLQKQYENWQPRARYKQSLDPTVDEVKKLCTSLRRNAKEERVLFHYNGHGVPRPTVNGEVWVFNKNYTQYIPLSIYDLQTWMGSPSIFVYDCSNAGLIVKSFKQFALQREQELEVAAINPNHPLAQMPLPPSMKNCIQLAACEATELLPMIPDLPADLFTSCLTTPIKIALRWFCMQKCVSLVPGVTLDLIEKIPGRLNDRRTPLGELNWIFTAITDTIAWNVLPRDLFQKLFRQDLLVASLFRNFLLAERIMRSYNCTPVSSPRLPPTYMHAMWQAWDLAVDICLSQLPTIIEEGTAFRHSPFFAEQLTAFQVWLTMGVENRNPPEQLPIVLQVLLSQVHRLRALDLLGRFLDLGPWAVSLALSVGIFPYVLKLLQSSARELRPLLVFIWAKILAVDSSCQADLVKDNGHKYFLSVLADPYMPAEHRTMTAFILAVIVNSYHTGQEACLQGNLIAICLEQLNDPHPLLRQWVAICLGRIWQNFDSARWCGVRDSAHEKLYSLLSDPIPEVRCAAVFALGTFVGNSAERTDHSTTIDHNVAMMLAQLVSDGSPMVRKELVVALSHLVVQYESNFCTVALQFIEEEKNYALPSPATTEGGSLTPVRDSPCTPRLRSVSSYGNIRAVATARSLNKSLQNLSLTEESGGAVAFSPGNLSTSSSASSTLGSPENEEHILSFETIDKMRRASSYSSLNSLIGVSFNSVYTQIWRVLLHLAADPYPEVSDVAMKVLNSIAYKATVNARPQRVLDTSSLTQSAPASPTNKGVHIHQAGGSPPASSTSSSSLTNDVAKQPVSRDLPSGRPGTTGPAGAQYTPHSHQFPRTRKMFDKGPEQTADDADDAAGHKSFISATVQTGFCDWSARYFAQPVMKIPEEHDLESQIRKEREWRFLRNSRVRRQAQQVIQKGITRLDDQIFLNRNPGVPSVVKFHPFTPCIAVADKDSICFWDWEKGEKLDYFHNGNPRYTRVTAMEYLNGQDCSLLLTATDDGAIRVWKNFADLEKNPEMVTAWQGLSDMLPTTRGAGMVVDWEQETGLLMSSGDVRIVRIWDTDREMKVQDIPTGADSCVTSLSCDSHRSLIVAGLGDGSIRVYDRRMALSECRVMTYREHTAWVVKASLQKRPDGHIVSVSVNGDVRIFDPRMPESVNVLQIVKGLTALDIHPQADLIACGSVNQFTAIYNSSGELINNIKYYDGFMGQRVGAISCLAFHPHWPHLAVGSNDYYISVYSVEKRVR

Assays:
[1] = target: rictor (human (endogenous in T24 and E6)) (UniProt Q6R327); experiment: co-IP; anti-raptor or anti-rictor antibody on Dynabeads Protein G, cell lysates (500 ug-4 mg) 2 h at 25°C; T24 cells serum-starved, with or without 100 ng/ml EGF 10 min, or transfected with Gab1, raptor or rictor siRNA; immunoblot for mTOR, raptor or rictor, Gab1
[2] = target: raptor (human (endogenous in T24 and E6)) (UniProt Q8N122); experiment: as above

binding [1]: binds
binding [2]: binds
B1: Grb2-associated binder 1 (Gab1) (protein, UniProt Q13480 1-694)
chain: MSGGEVVCSGWLRKSPPEKKLKRYAWKRRWFVLRSGRLTGDPDVLEYYKNDHAKKPIRIIDLNLCQQVDAGLTFNKKEFENSYIFDINTIDRIFYLVADSEEEMNKWVRCICDICGFNPTEEDPVKPPGSSLQAPADLPLAINTAPPSTQADSSSATLPPPYQLINVPPHLETLGIQEDPQDYLLLINCQSKKPEPTRTHADSAKSTSSETDCNDNVPSHKNPASSQSKHGMNGFFQQQMIYDSPPSRAPSASVDSSLYNLPRSYSHDVLPKVSPSSTEADGELYVFNTPSGTSSVETQMRHVSISYDIPPTPGNTYQIPRTFPEGTLGQTSKLDTIPDIPPPRPPKPHPAHDRSPVETCSIPRTASDTDSSYCIPTAGMSPSRSNTISTVDLNKLRKDASSQDCYDIPRAFPSDRSSSLEGFHNHFKVKNVLTVGSVSSEELDENYVPMNPNSPPRQHSSSFTEPIQEANYVPMTPGTFDFSSFGMQVPPPAHMGFRSSPKTPPRRPVPVADCEPPPVDRNLKPDRKVKPAPLEIKPLPEWEELQAPVRSPITRSFARDSSRFPMSPRPDSVHSTTSSSDSHDSEENYVPMNPNLSSEDPNLFGSNSLDGGSSPMIKPKGDKQVEYLDLDLDSGKSTPPRKQKSSGSGSSVADERVDYVVVDQQKTLALKSTREAWTDGRQSTESETPAKSVK
